In patent US11730769B2, “Compositions and methods for Williams Syndrome (WS) therapy” (MASSACHUSETTS INSTITUTE OF TECHNOLOGY, priority 2017, dated 2023):
Where two headings read alike, the source gives them in different places.

Protein sequences, listed by entry. Tags and fused reporters are not part of them.
UniProt P10635, whole entry: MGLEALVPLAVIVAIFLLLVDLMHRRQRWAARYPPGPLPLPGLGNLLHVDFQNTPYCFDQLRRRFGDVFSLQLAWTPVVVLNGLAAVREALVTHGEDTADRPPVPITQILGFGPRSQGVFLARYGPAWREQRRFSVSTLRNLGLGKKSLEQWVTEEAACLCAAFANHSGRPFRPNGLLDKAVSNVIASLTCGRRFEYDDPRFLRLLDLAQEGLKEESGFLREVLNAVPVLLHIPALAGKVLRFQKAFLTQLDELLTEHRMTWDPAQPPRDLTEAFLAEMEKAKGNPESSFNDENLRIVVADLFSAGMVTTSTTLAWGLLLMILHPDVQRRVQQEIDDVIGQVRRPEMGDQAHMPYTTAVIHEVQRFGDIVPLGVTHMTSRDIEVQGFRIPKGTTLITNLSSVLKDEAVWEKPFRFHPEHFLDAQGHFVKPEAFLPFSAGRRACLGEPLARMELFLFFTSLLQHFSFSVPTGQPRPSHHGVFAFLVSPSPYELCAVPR

Assays:
Gtf2i cKO mice [1] = test: Three-chamber social preference test; assay type: in vivo; conditions: clemastine 10 mg/kg daily for 14 days
Method: Stranger mice were wildtype S129 Sv males (Jackson Laboratory) with matched age and body weight to test mice. Stranger mice were habituated by placing them inside an inverted wire cup for 30 min, two sessions per day for three consecutive days before tests. Each stranger mouse was used a maximum of two times per day. The social test apparatus was made of a clear Plexiglas box (65 cm (L)×44 cm (W)×30 cm (H)) with a removable floor and partitions dividing the box into left, center, and right chambers. The center chamber (21 cm×22 cm) was half the width of the left and right chambers (each is 21 cm×44 cm). These three chambers were interconnected with 5 cm openings between each chamber that could be closed or opened manually with a lever-operated door. The inverted wire cups containing the stranger mice were cylindrical, 10 cm in height, with a bottom diameter of 10 cm and with metal bars spaced 0.8 cm apart. A weighted cup was placed on top of the inverted wire cups to prevent the test mice from climbing onto the wire cup. […] Then, experimenter blinded to genotypes analyzed for timespent in close proximity to the stranger mouse or object was analyzed using the Noldus Ethovison XT software. Social preference index was calculated as follows: (time in close interaction with stranger)/(time in close interaction with object). […]

[2] = absorbed from the gastrointestinal tract; cited from earlier work
cytochrome P450 CYP2D6 = cytochrome P450 CYP2D6 (Homo sapiens, UniProt P10635); conditions: cited from earlier work
Gtf2i cKO mice [3] = conditions: clemastine 10 mg/kg daily for 14 days, cKO mice vs cKO vehicle

CN1CCCC1CCOC(C)(c1ccccc1)c1ccc(Cl)cc1 (stereo not drawn) [Clemastine]
Social preference index, three-chamber test (Gtf2i cKO mice [1]): normalize
Social preference index, three-chamber test (Gtf2i cKO mice [1]; listed as clemastine): decreased and normalized to control levels
Time to peak plasma concentrations [2]: 2 to 4 h
Inhibition of cytochrome P450 CYP2D6 (cytochrome P450 CYP2D6): inhibitor
Myelin thickness as g ratio in CC midline (Gtf2i cKO mice [3]): significantly reduced g ratio
Myelin thickness as g ratio in CC midline (Gtf2i cKO mice [3]; listed as clemastine): significantly decreased g ratio
